# Reference: the supplement of paper PMC8090911
# Structures can show the parent of a compound that is named as a salt. This is one part of the list. Repeats are few or missing, and single values can be far off.
# Test system: p95-ErbB2-MCF7
# Experiment: perinuclear lysosome accumulation (PNLA, size of LAMP2 puncta), robust Z-score vs plate median; higher = more perinuclear lysosome accumulation (reversal of invasive lysosome distribution)
# Conditions: 5 µM; 24 h
row,Structure (SMILES),perinuclear lysosome accumulation
1,CC(=O)OCC(=O)[C@H]1CC[C@H]2[C@@H]3CC[C@H]4C[C@H](O)CC[C@]4(C)[C@H]3C(=O)C[C@]12C [Alfadolone acetate],1.67
2,CC(C)c1c(CN(C)C(C)Cc2ccccc2)n(C)n(-c2ccccc2)c1=O (configuration not stated) [Famprofazone],0.467
3,O=P1(NCCCl)OCCCN1CCCl (configuration not stated) [Ifosfamide],0.782
4,COc1cc2c(cc1OC)C(C)NCC2 (configuration not stated),-1.08
5,NC(=O)CN1CCCC1=O [Piracetam],1.18
6,Cc1cccc(C)c1NC1=NCCCS1 [Xylazine],0.873
7,CC(Cc1ccccc1)NCCC(c1ccccc1)c1ccccc1 (configuration not stated) [Prenylamine lactate],2.94
8,CC(=O)NC1CCSC1=O (racemic) [N-Acetyl-DL-homocysteine Thiolactone],-1
9,C[C@]12CC[C@H](O)C[C@H]1CC[C@@H]1[C@@H]2C[C@@H](O)[C@]2(C)[C@@H](C3=CC(=O)OC3)CC[C@]12O [Digoxigenin],1.07
10,Clc1ccc(C(OCCN2CCCCC2)c2ccccc2)cc1 (configuration not stated) [Cloperastine hydrochloride],1.17
11,CN1CCN(C(=O)OC2c3nccnc3C(=O)N2c2ccc(Cl)cn2)CC1 (configuration not stated) [Zopiclone],0.925
12,NC(=O)C[S+]([O-])C(c1ccccc1)c1ccccc1 (configuration not stated) [Modafinil],-0.121
13,COc1ccc2c(c1)[nH]c1c(C)nccc12 [Harmine hydrochloride],-0.264
14,CN1[C@@H](C[C@@H](O)c2ccccc2)CCC[C@H]1C[C@H](O)c1ccccc1 [Lobelanidine hydrochloride],-0.85
15,NCCc1c[nH]c2ccc(O)cc12 [Serotonin hydrochloride],1.32
16,CCN(C(C)=O)c1cccc(-c2ccnc3c(C#N)cnn23)c1 [Zaleplon],-0.742
17,COc1cc([C@@H]2c3cc4c(cc3[C@H](O)[C@H]3COC(=O)[C@H]23)OCO4)cc(OC)c1OC [Podophyllotoxin],5.29
18,CCC1(c2cccc(O)c2)CCCCN(C)C1 (configuration not stated) [Meptazinol hydrochloride],0.164
19,C[C@@H]1CC[C@H]2[C@@H](C)C(=O)O[C@@H]3O[C@@]4(C)CC[C@@H]1[C@]32OO4 [Artemisinin],2.37
20,CCNC1(c2cccs2)CCCCC1=O (configuration not stated) [Tiletamine hydrochloride],0.742
21,C[C@]12Cc3c[nH]nc3C[C@@H]1CC[C@@H]1[C@@H]2CC[C@@]2(C)[C@H]1CC[C@]2(C)O [Stanozolol],0.112
22,CC(C)(C)NCC(O)c1ccccc1Cl (configuration not stated) [Tulobuterol],-0.459
23,CO[C@]12C[C@@H](COC(=O)c3cncc(Br)c3)CN(C)[C@@H]1Cc1cn(C)c3cccc2c13 [Nicergoline],-1.14
24,"CC(=O)OCC1=C(C(=O)O)N2C(=O)[C@@H](N)[C@H]2SC1 [Cephalosporanic acid, 7-amino]",-0.443

# Fetched by structure from the entries so far, 2 records:
row,Structure (SMILES),perinuclear lysosome accumulation
8,CC(=O)NC1CCSC1=O (racemic) [N-Acetyl-DL-homocysteine Thiolactone],-1
9,C[C@]12CC[C@H](O)C[C@H]1CC[C@@H]1[C@@H]2C[C@@H](O)[C@]2(C)[C@@H](C3=CC(=O)OC3)CC[C@]12O [Digoxigenin],1.07

# Continued.

row,Structure (SMILES),perinuclear lysosome accumulation
1,C[C@@]12N[C@@H](Cc3ccccc31)c1ccccc12 [(-)-MK 801 hydrogen maleate],1.73
2,C[N+]12CCC(CC1)C(OC(=O)C(O)(c1ccccc1)c1ccccc1)C2 (configuration not stated) [Clidinium bromide],0.715
3,Oc1cc(Cl)ccc1Oc1ccc(Cl)cc1Cl [Triclosan],0.237
4,O[C@@H]1CCCC[C@H]1N1CCC(c2ccccc2)CC1 [L(-)-vesamicol hydrochloride],-0.373
5,CCN(CC)C(C)C(=O)c1ccccc1 (configuration not stated) [Amfepramone hydrochloride],0.906
6,C[N+]1([O-])[C@@H]2C[C@@H](OC(=O)[C@H](CO)c3ccccc3)C[C@H]1[C@@H]1O[C@@H]12 (some centres not stated) [Scopolamin-N-oxide hydrobromide],-2.17
7,C[C@]12N[C@H](Cc3ccccc31)c1ccccc12 [Dizocilpine maleate],0.595
8,CC(=O)O[C@H]1C[C@H](O[C@H]2[C@@H](O)C[C@H](O[C@H]3[C@@H](O)C[C@H](O[C@H]4CC[C@@]5(C)[C@H](CC[C@@H]6[C@@H]5C[C@@H](O)[C@]5(C)[C@@H](C7=CC(=O)OC7)CC[C@]65O)C4)O[C@@H]3C)O[C@@H]2C)O[C@H](C)[C@H]1O[C@@H]1O[C@H](CO)[C@@H](O)[C@H](O)[C@H]1O [Lanatoside C],2.68
9,COc1ccc(CCN2CCC(Nc3nc4ccccc4n3Cc3ccc(F)cc3)CC2)cc1 [Astemizole],2.5
10,CC(C)(C)NCC(O)c1cc(Cl)c(N)c(Cl)c1 (configuration not stated) [Clenbuterol hydrochloride],0.875
11,Fc1ccc(C(OCCN2CCN(CCCc3ccccc3)CC2)c2ccc(F)cc2)cc1,2.65
12,COC(=O)C1=CCCN(C)C1 [Arecoline hydrobromide],-3.06
13,CCC1(CC)C(=O)C=CNC1=O [Pyrithyldione],-0.212
14,COc1ccc(Cc2nccc3cc(OC)c(OC)cc23)cc1OC [Papaverine hydrochloride],-0.0124
15,"NCC(O)c1ccc(O)cc1 (racemic) [(+,-)-Octopamine hydrochloride]",-0.29
16,COc1ccc2c3c([nH]c2c1)C(C)=NCC3 [Harmaline hydrochloride dihydrate],-0.844
17,CN1[C@@H]2CC[C@H]1C[C@@H](OC1c3ccccc3CCc3ccccc31)C2 [Deptropine citrate],1.65
18,CC[C@@]1([C@@H]2O[C@@H]([C@H]3O[C@@](O)(CO)[C@H](C)C[C@@H]3C)C[C@@H]2C)CC[C@H]([C@]2(C)CC[C@]3(C[C@H](O)[C@@H](C)[C@@H]([C@@H](C)[C@@H](OC)[C@H](C)C(=O)O)O3)O2)O1 [Monensin sodium salt],8.07
19,CCN(C)C(=O)Oc1cccc([C@H](C)N(C)C)c1 [Rivastigmine],-0.257
20,"CCC1(c2ccc(N)cc2)CCC(=O)NC1=O (configuration not stated) [Glutethimide, para-amino]",0.631
21,C[C@]12CC[C@H](O)C[C@@H]1CC[C@@H]1[C@@H]2CC[C@]2(C)C(=O)CC[C@@H]12 [Epiandrosterone],2.09
22,CN(C)C(=O)Oc1cc(OC(=O)N(C)C)cc(C(O)CNC(C)(C)C)c1 (configuration not stated) [Bambuterol hydrochloride],-1.06
23,O=[N+]([O-])c1cc([As](=O)(O)O)ccc1O [Roxarsone],0.662
